According to patent US7514534:
Results are given in words; binding and its absence hold for the method and conditions named. Some entries that bind do so weakly or less than the wild type.

Amino acid sequences for entries named in this document (tags omitted). A change or cut given only in a name is not applied to a line headed by its entry. Residues count along the entry.
UniProt Q9NRE1: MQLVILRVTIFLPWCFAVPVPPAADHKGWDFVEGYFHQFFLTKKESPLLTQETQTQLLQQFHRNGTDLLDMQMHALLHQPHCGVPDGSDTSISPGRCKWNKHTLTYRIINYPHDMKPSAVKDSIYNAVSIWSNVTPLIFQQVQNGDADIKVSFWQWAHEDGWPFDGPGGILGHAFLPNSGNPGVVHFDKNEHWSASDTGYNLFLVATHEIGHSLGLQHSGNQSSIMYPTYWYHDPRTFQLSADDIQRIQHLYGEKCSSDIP
UniProt P08254, residues 100-477: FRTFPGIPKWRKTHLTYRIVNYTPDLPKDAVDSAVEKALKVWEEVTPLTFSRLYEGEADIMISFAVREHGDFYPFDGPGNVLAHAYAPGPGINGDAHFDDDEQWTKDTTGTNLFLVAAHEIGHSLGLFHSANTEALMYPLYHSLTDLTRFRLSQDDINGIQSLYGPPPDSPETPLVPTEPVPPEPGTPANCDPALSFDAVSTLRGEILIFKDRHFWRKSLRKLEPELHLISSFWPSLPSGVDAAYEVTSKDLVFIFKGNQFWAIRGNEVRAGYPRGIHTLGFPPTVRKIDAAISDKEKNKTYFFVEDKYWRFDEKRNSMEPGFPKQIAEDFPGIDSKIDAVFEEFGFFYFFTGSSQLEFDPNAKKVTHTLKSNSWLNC
UniProt P14780, residues 107-707: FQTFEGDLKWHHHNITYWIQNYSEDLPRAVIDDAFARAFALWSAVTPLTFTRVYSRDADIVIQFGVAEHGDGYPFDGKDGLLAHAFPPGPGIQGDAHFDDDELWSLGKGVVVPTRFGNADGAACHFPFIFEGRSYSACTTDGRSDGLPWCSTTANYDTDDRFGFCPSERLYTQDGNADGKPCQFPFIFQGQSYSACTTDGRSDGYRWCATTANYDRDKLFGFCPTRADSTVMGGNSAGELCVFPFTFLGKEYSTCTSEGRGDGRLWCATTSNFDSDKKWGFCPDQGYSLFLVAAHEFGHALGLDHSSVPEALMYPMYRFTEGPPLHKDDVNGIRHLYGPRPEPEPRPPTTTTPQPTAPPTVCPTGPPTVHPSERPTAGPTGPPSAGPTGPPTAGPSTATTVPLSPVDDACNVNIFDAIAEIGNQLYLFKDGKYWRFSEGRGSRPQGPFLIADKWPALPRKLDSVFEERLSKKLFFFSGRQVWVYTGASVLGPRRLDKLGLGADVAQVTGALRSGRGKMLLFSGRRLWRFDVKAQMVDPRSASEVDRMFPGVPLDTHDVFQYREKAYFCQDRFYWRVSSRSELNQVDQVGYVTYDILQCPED

How the values were obtained:
Assay in all cases: MMP cross reactivity ELISA, IgG4 at 2 µg/ml
[1] = biological target: MMP-26 catalytic domain, tagged with hexa-histidine (human) (UniProt Q9NRE1)
MMP-3 = MMP-3 (UniProt P08254)
MMP-9 = MMP-9 (UniProt P14780)

binding [1] | binding (MMP-3) | binding (MMP-9) | Binder
binds | – | – | C10 (antibody, human IgG4, V domains shown) VH: EVQLLESGGGLVQPGGSLRLSCAASGFTFSVYVMMWVRQAPGKGLEWVSGIVPSGGKTHYADSVKGRFTISRDNSKNTLYLQMNSLRAEDTAVYYCARPDYGGNSRPLEYWGQGTLVTVSS VL: QSELTQPASVSGSPGQSITISCTGTSSDVGSYNLVSWYQQHPGKAPKLMIYEGSKRPSGVSNRFSGSKSGNTASLTISGLQAEDEADYYCCSYAGSSTYVFGTGTKVTVLG
binds | – | – | D06 (antibody, human IgG4, V domains shown) VH: EVQLLESGGGLVQPGGSLRLSCAASGFTFSGYIMEWVRQAPGKGLEWVSVIVSSGGFTMYADSVKGRFTISRDNSKNTLYLQMNSLRAEDTAVYYCARVGDSKGGYYLDYWGQGTLVTVSS VL: DIQMTQSPSSLSASVGDRVTITCRTSQIINTYLNWYQQKPGKAPKLLIYAASTLQGGVPSRFSGSGSGTDFTLTIKSLQPDDFATYYCQQSYTSPRTFGQGTKVEIKR
binds | – | – | D07 (antibody, human IgG4, V domains shown) VH: EVQLLESGGGLVQPGGSLRLSCAASGFTFSEYNMFWVRQAPGKGLEWVSYIYSSGGSTDYADSVKGRFTISRDNSKNTLYLQMNSLRAEDTAVYYCARVGIAARPFDPWGQGTLVTVSS VL: QSELTQPASVSGSPGQSITISCTGTNSDIGGYNYVSWYQQHPGKVPKLLIFEVNNRPSGVSSRFSGSKSGDTASLTISGLQPEDEAVYYCGSFTVSVTYVFGTGTKVTVLG
binds | – | – | C09 (antibody, human IgG4, V domains shown) VH: EVQLLESGGGLVQPGGSLRLSCAASGFTFSQYFMNWVRQAPGKGLEWVSYISGGRTPYADSVKGRFTISRDNSKNTLYLQMNSLRAEDTAVYYCAILLGPSSSNHPFLGPWGQGTLVTVSS VL: DIQMTQSPGTLSLSPGERATLSCRASQSVSSTYLAWYQQKPGQAPRLLISGASSRATGIPDRFSGSGSGTDFTLTISRLEPEDFAVYYCQQYGSSPYTFGQGTKLEIKR
binds | – | – | C11 (antibody, human IgG4, V domains shown) VH: EVQLLESGGGLVQPGGSLRLSCAASGFTFSEYPMWWVRQAPGKGLEWVSWIYPSGGNTDYADSVKGRFTISRDNSKNTLYLQMNSLRAEDTAVYYCAIPYCSSSSCPLHWGQGTLVTVSS VL: QSELTQPPSASGSPGQSVTISCTGTSSDVGGYNYVSWYQQHPDKAPKLLIYEVTQRPSGVPDRFSGSRSGNTASLTVSGLQAEDEADYYCSSYAGRNNLYVFGPGTKVTVLG
binds | binds | – | C12 (antibody, V domains shown) VH: EVQLLESGGGLVQPGGSLRLSCAASGFTFSAYNMMWVRQAPGKGLEWVSRIYPSGGYTLYADSVKGRFTISRDNSKNTLYLQMNSLRAEDTAVYYCARQKLMIRAVRPFDYWGQGTLVTVSS VL: QSELTQPPSVSVSPAQTASITCSGDKLGDKYACWYQQKPGQSPVLVIYEDTKRPSGIPERFSGSNSGNTATLTISGTQVMDEADYYCQVWDSSTAVFGGGTKLTVLG
binds | – | – | D08 (antibody, human IgG4, V domains shown) VH: EVQLLESGGGLVQPGGSLRLSCAASGFTFSFYAMWWVRQAPGKGLEWVSRIYSSGGKTWYADSVKGRFTISRDNSKNTLYLQMNSLRAEDTAVYYCARVGMSTYAFDIWGQGTMVTVSS VL: DIQMTQSPSSLSASVGDRVTITCRASQSISDYLNWYQQKPGKAPDLLIYAASSLQSGVPSRFSGSGSGTDFTLTVSSLQPEDFATYFCQQSYSIPLTFGGGTKVEITR
binds | binds | – | B10 (antibody, human IgG4, V domains shown) VH: EVQLLESGGGLVQPGGSLRLSCAASGFTFSSYAMMWVRQAPGKGLEWVSWIVPSGGTTFYADSVKGRFTISRDNSKNTLYLQMNSLRAEDTAVYYCARGLYRWGQGTLVTVSSASTKGPSVFP VL: DIQMTQSPSSLSASVGDRVTIACRTSQNVNRYLNWYQHKLGQAPKLLIYGATILQSGVPSRFRGSGSGTDFILTITNLQPEDFAVYYCQQTYSPPLTFGQGTKAEFKGTVAAPSV
binds | – | binds | D6-orig (antibody, human IgG4, V domains shown) VH: EVQLLESGGGLVQPGGSLRLSCAASGFTFSMYSMRWVRQAPGKGLEWVSSIYPSGGSTEYADSVKGRFTISRDNSKNTLYLQMNSLRAEDTAVYYCAREGGENDYWGQGTLVTVSS VL: DIQMTQSPLSLSASVGDRVAITCRASQSIDTYLNWYQQKPGKAPKLLIYAASKLEDGVPSRFSGSGTGTDFTLTIRSLQPEDFASYFCQQSYSSPGITFGPGTKVEIKR

More lines, now with the values behind:

Binder | binding [1] | binding (MMP-3) | binding (MMP-9)
D01 (antibody, V domains shown) VH: EVQLLESGGGLVQPGGSLRLSCAASGFTFSMYLMFWVRQAPGKGLEWVSVISSSGGETSYADSVKGRFTISRDNSKNTLYLQMNSLRAEDTAVYYCARQVSDWTRLYSFDYWGQGTLVTVSS VL: QSELTQPPSASGTPGQRITISCSGSSSNIGSNYVYWYQQFPETAPKLLISRNDQRPSGVPDRFSGSKSGTSASLAISGLRSEDEADYYCASWDDSLSGVVFGGGTKLTVLG | binds | – | –
C02 (antibody, human IgG4, V domains shown) VH: EVQLLESGGGLVQPGGSLRLSCAASGFTFSHYSMRWVRQAPGKGLEWVSYIVPSGGFTQYADSVKGRFTISRDNSKNTLYLQMNSLRAEDTAVYYCARGTHLPGVDYWGQGTLVTVSS VL: DIQMTQSPSSLSASVGDRVTITCRASQTISTYLVWYQQKPEKAPTLLISGASTLQSGVPNRFRGSGSGTDFTLAISSLQPEDFATYYCQQSYTSPRTFGQGTKVEIKR | – | binds | binds
D03 (antibody, human IgG4, V domains shown) VH: EVQLLESGGGLVQPGGSLRLSCAASGFTFSWYRMDWVRQAPGKGLEWVSVIGSSGGMTYYADSVKGRFTISRDNSKNTLYLQMNSLRAEDTAVYYCARRVVGGAGMDVWGQGTTVTVSS VL: DIQMTQSPSAMSASVGDRVTITCRASQVMINYIAWFRQKPGKVPERLIYAASTLQNGVPSRFSGSGSGTDFTLTISRLEPEDFAVYYCQHRITWPPALTFGGGTTVEIKR | binds | – | –
A1-orig (antibody, human IgG4, V domains shown) VH: EVQLLESGGGLVQPGGSLRLSCAASGFTFSYYRMSWVRQAPGKGLEWVSSIGPSGGDTLYADSVKGRFTISRDNSKNTLYLQMNSLRAEDTAVYYCARSFSSGPYYFDYWGQGTLVTVSS VL: QSVLTQPPSASGTPGQRVIISCSGSSSNIGSHYVHWYQQVPGTAPKLLIYRNGQRPSGVPDRFSGFKSGTSASLAISGLRSEDEANYYCATWDDSVLFGGGTTLTVLG | binds | – | binds
D02 (antibody, human IgG4, V domains shown) VH: EVQLLESGGGLVQPGGSLRLSCAASGFTFSWYDMAWVRQAPGKGLEWVSRIVPSGGHTSYADSVKGRFTISRDNFKNTLYLQMNSLRAEDTAVYYCARRASRPEFFDYWGQGALVTVSS VL: DIQMTQSPSFLSASVGDRVTITCRASQGISTYLAWYQQKPGKAPKVLIYTASTLQSGVPSRFSGSGSGTEFTLTISSLQPEDFATYYCQQSYITPPEVTFGPGTKVDIKR | binds | – | –
D04 (antibody, human IgG4, V domains shown) VH: EVQLLESGGGLVQPGGSLRLSCAASGFTFSDYQMMWVRQAPGKGLEWVSRISPSGGMTRYADSVKGRFTISRDNSKNTLYLPMNSLRAEDTAVYYCARSGPYYFDYWGQGTLVTVSS VL: DIQMTQSPSSLSASVGDRVAITCRASQSIDTYLNWYQQKPGKAPKLLIYAASKLEDGVPSRFSGSGTGTDFTLTIRSLQPEDFASYFCQQSYSSPGITFGPGTKVEIKR | binds | – | –
